{"source": "PubChem BioAssay AID743454 (Peter MacCallum Cancer Centre, 2014)", "purpose": "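Search for knock-downs that restore vorinostat killing in resistant colon cancer cells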 (primary screen)", "cell system": "human HCT116-VR colon cancer cells, selected for vorinostat resistance", "knock-down reagent": "siRNA pool against human genes, 40 nM siRNA pool", "timing": "vorinostat for 24 h, read-out about 72 h after transfection", "treatment": "vorinostat at 2.5 µM final", "measured": "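Two measures, CellTiter-Fluor viability and luminescent caspase 3/7 activity, each as fold change against same-plate mock wells, mean of duplicates, then screen-wide robust z-score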", "direction": "viability robust z-score: higher = more viable cells than screen typical; caspase robust z-score: higher = more caspase 3/7 activity than screen typical", "call rule": "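a knock-down is a hit when classed RV1 or RV2 for lowered viability, or CA1 or CA2 for caspase activation; those lethal without drug were dropped; hits were retested singly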", "note": "The deposit covers about 18,000 reagents; this is a part drawn at random. 450 of them (2.5%) count as active. 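Single biological run; no consistent viability z cut-off exists, so the class columns, not z-scores, define the calls.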 Unmarked entries are inactive."}
{"target gene": "TSBP1 (GeneID 10665)", "viability hit class": "no change", "caspase hit class": "no change", "viability robust z-score": 0.81, "caspase robust z-score": 0.82}
{"target gene": "IL15RA (GeneID 3601)", "viability hit class": "no change", "caspase hit class": "no change", "viability robust z-score": -0.74, "caspase robust z-score": 4.95}
{"target gene": "TBL1X (GeneID 6907)", "viability hit class": "no change", "caspase hit class": "no change", "viability robust z-score": 0.9, "caspase robust z-score": -0.26}
{"target gene": "IGF1R (GeneID 3480)", "viability hit class": "no change", "caspase hit class": "no change", "viability robust z-score": 0.18, "caspase robust z-score": 0.15}
{"target gene": "OR4Q3 (GeneID 441669)", "viability hit class": "no change", "caspase hit class": "no change", "viability robust z-score": 0.2, "caspase robust z-score": 0.92}
{"target gene": "TMLHE (GeneID 55217)", "viability hit class": "no change", "caspase hit class": "no change", "viability robust z-score": 0.11, "caspase robust z-score": -0.33}

The list goes on (2 carried over from the part before).
{"target gene": "OR4Q3 (GeneID 441669)", "viability hit class": "no change", "caspase hit class": "no change", "viability robust z-score": 0.2, "caspase robust z-score": 0.92}
{"target gene": "TMLHE (GeneID 55217)", "viability hit class": "no change", "caspase hit class": "no change", "viability robust z-score": 0.11, "caspase robust z-score": -0.33}
{"target gene": "PIGV (GeneID 55650)", "viability hit class": "no change", "caspase hit class": "no change", "viability robust z-score": -0.85, "caspase robust z-score": 1.66}
{"target gene": "KIAA0513 (GeneID 9764)", "viability hit class": "no change", "caspase hit class": "no change", "viability robust z-score": 0.94, "caspase robust z-score": -0.64}
{"target gene": "CCDC18 (GeneID 343099)", "viability hit class": "no change", "caspase hit class": "no change", "viability robust z-score": -0.84, "caspase robust z-score": -1.07}
{"target gene": "ZNF585A (GeneID 199704)", "viability hit class": "no change", "caspase hit class": "no change", "viability robust z-score": 0.16, "caspase robust z-score": 0.66}
{"target gene": "PRKAR1B (GeneID 5575)", "viability hit class": "no change", "caspase hit class": "no change", "viability robust z-score": -0.4, "caspase robust z-score": 2.34}
{"target gene": "PSMB8 (GeneID 5696)", "viability hit class": "no change", "caspase hit class": "no change", "viability robust z-score": -1.39, "caspase robust z-score": 1.77}
{"target gene": "AHCYL1 (GeneID 10768)", "viability hit class": "no change", "caspase hit class": "no change", "viability robust z-score": 0.36, "caspase robust z-score": -0.74}
{"target gene": "DDR1 (GeneID 780)", "viability hit class": "no change", "caspase hit class": "no change", "viability robust z-score": -0.62, "caspase robust z-score": 1.66}
